Test results taken from PubChem BioAssay AID504327 (National Center for Advancing Translational Sciences (NCATS), 2011).
Screen size: about 390,000 compounds; about 820 (0.21%) were called active. Inconclusive means that the source gave no clear call. Such entries were picked first, then a sample of the others. Calls follow the shape of the dose curve; as a rule, active = well fitted inhibition curve with a large enough effect; inconclusive = small, poorly fitted or top-dose-only effect, or another doubt; inactive = no such curve, though single readings can be large or run the other way. Potencies of inconclusive entries are doubtful fits and often do not repeat.

Sequences of proteins named here, by UniProt entry; tags and fusion partners are left off.
UniProt Q92830, whole entry, looked up: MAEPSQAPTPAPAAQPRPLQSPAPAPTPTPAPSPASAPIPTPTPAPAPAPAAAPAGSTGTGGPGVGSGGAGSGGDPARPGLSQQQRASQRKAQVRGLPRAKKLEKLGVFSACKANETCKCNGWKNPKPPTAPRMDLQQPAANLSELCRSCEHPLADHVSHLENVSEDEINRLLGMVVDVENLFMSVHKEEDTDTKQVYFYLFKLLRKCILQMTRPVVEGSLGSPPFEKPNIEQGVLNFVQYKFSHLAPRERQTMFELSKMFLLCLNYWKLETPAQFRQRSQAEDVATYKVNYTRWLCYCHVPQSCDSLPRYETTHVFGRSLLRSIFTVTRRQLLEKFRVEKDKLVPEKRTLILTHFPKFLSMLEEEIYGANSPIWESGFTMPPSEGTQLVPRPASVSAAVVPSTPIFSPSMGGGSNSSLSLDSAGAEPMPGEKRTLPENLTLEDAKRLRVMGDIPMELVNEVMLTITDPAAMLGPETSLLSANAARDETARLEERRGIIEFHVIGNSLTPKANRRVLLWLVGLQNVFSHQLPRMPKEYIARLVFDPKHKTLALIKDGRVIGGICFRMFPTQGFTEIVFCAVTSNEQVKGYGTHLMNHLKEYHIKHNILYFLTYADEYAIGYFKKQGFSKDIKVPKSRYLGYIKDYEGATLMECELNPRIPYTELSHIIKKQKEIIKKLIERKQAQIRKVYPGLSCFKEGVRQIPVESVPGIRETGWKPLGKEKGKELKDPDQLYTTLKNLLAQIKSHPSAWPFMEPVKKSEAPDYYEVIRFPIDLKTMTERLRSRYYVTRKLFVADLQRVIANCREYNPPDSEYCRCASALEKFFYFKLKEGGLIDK

Molecular target: Histone acetyltransferase KAT2A (Homo sapiens) (UniProt Q92830)
Experiment: qHTS Assay for Inhibitors of GCN5L2
Details: GCN5L2 HAT assay, ThioGlo1 CoA-SH fluorescence; series mostly up to 58.9 µM
Outline: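 Enzyme at 20nM final was mixed with library compounds for 15 min at room temperature. Peptide H3(1-25) at 75uM, acetyl-CoA at 70uM and ThioGlo1 at 50uM were then added. Plates were read immediately and after 20 min (Ex340nm/Em540nm).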
Potency is read from the fitted curve at half-maximal effect.

**Q.** CC[C@H](C)[C@H](NC(=O)[C@H](C)NC(=O)CNC(=O)[C@H](CCCN=C(N)N)NC(=O)[C@H](C)NC(=O)[C@H](CC(C)C)NC(=O)[C@H](CCC(=O)O)NC(=O)[C@H](CC(C)C)NC(=O)[C@H](C)NC(=O)[C@@H](N)CCC(=O)O)C(=O)N[C@@H](Cc1ccccc1)C(=O)N[C@@H](CCC(N)=O)C(=O)N[C@@H](C)C(=O)O was tested. Which Potency did it give?
**A.** inactive

**Q.** Which Potency does the source give for CS(=O)(=O)Nc1cccc(-c2ccc3ncnc(NCc4cccnc4)c3c2)c1 here?
**A.** inconclusive: 35.5 µM [inhibitor, single point]

**Q.** CC(=O)NC1CC(=O)N(c2ccc3c(c2)OCCO3)C1 (stereo unspecified) was tested. Which Potency did it give?
**A.** inactive

**Q.** CC(=O)Oc1oc(-c2ccccc2)nc1C=Nc1ccccc1 was tested. Which Potency did it give?
**A.** inactive

**Q.** With Cn1cccc1CC(=O)N/N=C/C=C/c1ccco1 as the compound, how does the Potency read?
**A.** inconclusive: 35.5 µM [inhibitor, single point]

**Q.** With COc1ccc(CNC(=O)c2ccc3nc(CCc4ccccc4)oc3c2)cc1OC as the compound, how does the Potency read?
**A.** inconclusive: 0.708 µM [inhibitor, single point]

**Q.** With CCCCCCC1(C)NC(=S)N(c2ccccc2)N1 (stereo unspecified) as the compound, how does the Potency read?
**A.** inconclusive: 39.8 µM [inhibitor, single point]

**Q.** With CCOC(=O)N1CCc2c(sc3c2c(=O)n(Cc2ccccc2)c(=O)n3Cc2cc(C)ccc2C)C1 as the compound, how does the Potency read?
**A.** inactive

**Q.** For Cc1nc(-c2ccccc2)sc1C(=O)Nc1ccc(S(N)(=O)=O)cc1, which Potency is on record?
**A.** inconclusive: 3.98 µM [inhibitor, full curve]

**Q.** O=C(Nc1ccccc1N1CCOCC1)c1ccc(Cl)nc1 was tested. Which Potency did it give?
**A.** inconclusive: 0.794 µM [inhibitor, single point]

**Q.** For COc1ccc(S(=O)(=O)N2CCC[C@H]2C(=O)NC2=NCCS2)cc1, which Potency is on record?
**A.** inactive

**Q.** How did the Potency turn out when Cc1ccc(C(=O)NC(=S)Nc2ccccc2C)cc1 was run?
**A.** inconclusive: 35.5 µM [inhibitor, single point]

**Q.** Nn1c(SCC(=O)Nc2ccc(S(N)(=O)=O)cc2)nnc1-c1ccco1 was tested. Which Potency did it give?
**A.** inconclusive: 39.8 µM [inhibitor, single point]

**Q.** How did the Potency turn out when CCn1c(SCC(=O)N/N=C/C=C/c2ccco2)nc2ccccc21 was run?
**A.** inconclusive: 31.6 µM [inhibitor, single point]

**Q.** With CCc1ccccc1Nc1nn2c(=O)c3ccc(C(=O)NC(C)c4ccccc4)cc3nc2s1 (stereo unspecified) as the compound, how does the Potency read?
**A.** inactive

**Q.** How did the Potency turn out when COC(=O)C1=C(C)N(c2cccc3ccccc23)C(=O)C1 was run?
**A.** inactive

**Q.** CCC(CC)C(=O)c1c[nH]c(C(=O)NCC2CCCO2)c1 (stereo unspecified) was tested. Which Potency did it give?
**A.** inconclusive: 14.1 µM [inhibitor, partial curve]

**Q.** For O=C(N/N=C/c1c(O)n(-c2ccccc2Cl)c(=O)c2ccccc12)C1COc2ccccc2O1 (stereo unspecified), which Potency is on record?
**A.** inactive

**Q.** With CCOC(=O)/C(C#N)=C\C=C1C=CN(C)C=C1 as the compound, how does the Potency read?
**A.** inconclusive: 25.1 µM [inhibitor, single point]

**Q.** For Cc1ccccc1C(=O)Nc1ccccc1C(=O)N/N=C\c1ccco1, which Potency is on record?
**A.** inconclusive: 39.8 µM [inhibitor, single point]

**Q.** How did the Potency turn out when COc1cc(-c2nnc3sc(Cc4ccccc4)nn23)cc(OC)c1OC was run?
**A.** inactive

**Q.** With C=CCSc1nc2sc(C)c(C)c2c(=O)n1CC=C as the compound, how does the Potency read?
**A.** inactive

**Q.** How did the Potency turn out when CSC[C@H](NC(=O)COc1cc2c(c3oc(=O)cc(C)c13)CCC(C)(C)O2)C(=O)O was run?
**A.** inconclusive: 39.8 µM [inhibitor, single point]

**Q.** O=c1[nH]c(=S)[nH]cc1S(=O)(=O)c1cccc(Cl)c1 was tested. Which Potency did it give?
**A.** inactive

**Q.** For COc1ccc(OC)c(NC(=O)C2CCN(S(=O)(=O)c3ccc4c(c3)CCCC(=O)N4)CC2)c1, which Potency is on record?
**A.** inactive

**Q.** With COC(=O)Nc1nnc(-c2ccncc2)s1 as the compound, how does the Potency read?
**A.** inactive

**Q.** How did the Potency turn out when COC(=O)C1=C(C)N(CCCC(=O)O)C(=O)NC1c1cc2c(cc1[N+](=O)[O-])OCO2 (stereo unspecified) was run?
**A.** inactive

**Q.** How did the Potency turn out when Cc1ccc(C(=O)CSc2cc(C)[nH]c(=O)n2)cc1 was run?
**A.** inconclusive: 1.12 µM [inhibitor, full curve, poor fit]

**Q.** CC(=O)Nc1nc2n(n1)C(c1ccc(F)cc1)C=C(c1ccccc1)N2 (stereo unspecified) was tested. Which Potency did it give?
**A.** inconclusive: 39.8 µM [inhibitor, single point]

**Q.** For CN(C)c1ccc(S(=O)(=O)NCC(=O)N2CCN(c3ccccc3)CC2)cc1[N+](=O)[O-], which Potency is on record?
**A.** inconclusive: 1 µM [inhibitor, full curve, poor fit]

**Q.** With CC(=O)c1ccc(NC(=O)CSc2ccc(-c3cccs3)nn2)cc1 as the compound, how does the Potency read?
**A.** inactive

**Q.** For CCOc1cc(/C=C2\C(=O)N(Cc3ccc(C)cc3)C(C)=C2C(=O)OC)ccc1O, which Potency is on record?
**A.** inconclusive: 31.6 µM [inhibitor, single point]

**Q.** How did the Potency turn out when C#CCOCCOCCOCCNc1nc(N2CCN(C(=O)[C@H](CCC(=O)O)n3cc(CN)nn3)CC2)nc(N2CCN(C(=O)[C@H](CCC(=O)O)n3cc([C@@H](N)[C@H](C)CC)nn3)CC2)n1 was run?
**A.** inactive

**Q.** How did the Potency turn out when CCOC(=O)CN1C(=O)S/C(=C/c2ccc(OCc3ccc(C(=O)O)cc3)cc2)C1=O was run?
**A.** inconclusive: 2.24 µM [inhibitor, full curve, poor fit]

**Q.** Which Potency does the source give for O=C(Cn1cnc2ccc(Cl)cc2c1=O)NC1CCS(=O)(=O)C1 (stereo unspecified) here?
**A.** inconclusive: 0.141 µM [inhibitor, full curve, poor fit]

**Q.** With Cc1oc2cc3oc(=O)ccc3cc2c1C as the compound, how does the Potency read?
**A.** inconclusive: 3.55 µM [inhibitor, single point]

**Q.** COc1ccccc1CN=C1Nc2ccccc2CS1 was tested. Which Potency did it give?
**A.** inconclusive: 0.891 µM [inhibitor, single point]

**Q.** For C=CCN1C(=O)/C(=C/c2ccc(-c3ccc(F)cc3)o2)SC1=S, which Potency is on record?
**A.** inactive

**Q.** With Cc1ccnc(SC2CC(=O)N(c3ccc(C(C)C)cc3)C2=O)n1 (stereo unspecified) as the compound, how does the Potency read?
**A.** inconclusive: 0.562 µM [inhibitor, single point]

**Q.** For O=C(Nc1ccc(C(=O)N2CCOCC2)cc1)c1cccc(Br)c1, which Potency is on record?
**A.** inconclusive: 8.91 µM [inhibitor, partial curve, poor fit]

**Q.** With CCOC(=O)C1=C(C)Nc2nc(SCC)nn2C1c1ccc(OC)cc1 (stereo unspecified) as the compound, how does the Potency read?
**A.** inactive

**Q.** Which Potency does the source give for Cc1c(Cl)cccc1NC(=O)C(=O)NNS(=O)(=O)c1ccc(F)cc1 here?
**A.** inconclusive: 2.82 µM [inhibitor, partial curve]

**Q.** How did the Potency turn out when COc1cc(OC)c(C2CC(=O)N3CN(c4ccccc4)CSC3=C2C#N)cc1OC (stereo unspecified) was run?
**A.** inconclusive: 39.8 µM [inhibitor, single point]

**Q.** How did the Potency turn out when Nc1c(C=C2C=CC(=O)C=C2)c(=O)nc2snc(SCc3ccccc3)n12 was run?
**A.** inactive

**Q.** COc1ccccc1-c1ccc(SCC(=O)NCCc2ccccc2)nn1 was tested. Which Potency did it give?
**A.** inactive

**Q.** With CCc1ccc(S(=O)(=O)Nc2ccc(-c3nc4cccnc4s3)cc2)s1 as the compound, how does the Potency read?
**A.** inconclusive: 39.8 µM [inhibitor, single point]

**Q.** How did the Potency turn out when CCOC(=O)c1sc(=S)n(C)c1NC(=O)c1ccc(OC)cc1 was run?
**A.** inconclusive: 25.1 µM [inhibitor, partial curve]

**Q.** With CC(NC(=O)Cc1ccccc1)c1nc2ccccc2[nH]1 (stereo unspecified) as the compound, how does the Potency read?
**A.** inconclusive: 7.08 µM [inhibitor, single point]

**Q.** How did the Potency turn out when CC(=O)N/C(=C/c1ccccc1)C(=O)NCCO was run?
**A.** inconclusive: 0.708 µM [inhibitor, single point]

**Q.** For O=C(Nc1ccc(Cl)cc1)C1CCC(=O)N1Cc1ccccc1Cl (stereo unspecified), which Potency is on record?
**A.** inconclusive: 17.8 µM [inhibitor, single point]

**Q.** Which Potency does the source give for COC(=O)C(=O)/C=C(\O)c1c(C)cc(C)cc1C here?
**A.** inactive

**Q.** For O=[N+]([O-])c1ccccc1OCCOc1ccccc1[N+](=O)[O-], which Potency is on record?
**A.** inactive

**Q.** How did the Potency turn out when CC(=O)Nc1ccc(OS(=O)(=O)c2ccc([N+](=O)[O-])cc2)cc1 was run?
**A.** inconclusive: 6.31 µM [inhibitor, single point]

**Q.** With Cc1ccc(C(C)C)c(OCC(O)CN2CCc3ccccc3C2)c1 (stereo unspecified) as the compound, how does the Potency read?
**A.** inactive

**Q.** With Cc1cc(C)n2c(=S)[nH]nc2n1 as the compound, how does the Potency read?
**A.** active: 25.1 µM

**Q.** For O=S(=O)(c1cc(F)ccc1F)N1CCN(C2CCCCC2)CC1, which Potency is on record?
**A.** inconclusive: 5.62 µM [inhibitor, full curve, poor fit]

**Q.** How did the Potency turn out when COC(=O)c1cccc2nc3c(C(C)O)cccc3nc12 (stereo unspecified) was run?
**A.** inconclusive: 1 µM [inhibitor, full curve, poor fit]

**Q.** Cc1ccc(NC(=O)c2cnn3c2NC(c2ccccc2)=CC3c2ccccc2)cc1 (stereo unspecified) was tested. Which Potency did it give?
**A.** inconclusive: 15.8 µM [inhibitor, partial curve, poor fit]

**Q.** How did the Potency turn out when CCOC(=O)CSC1=C(C#N)C(=O)NC2(CCCCC2)S1 was run?
**A.** inconclusive: 39.8 µM [inhibitor, single point]

**Q.** For COc1ccc(OC)c(Nc2nc3ccccc3n3cnnc23)c1, which Potency is on record?
**A.** inconclusive: 35.5 µM [inhibitor, single point]

**Q.** With OC[C@@H](O)[C@H](O)C(/C=N/Nc1ccccc1)=N\Nc1ccccc1 as the compound, how does the Potency read?
**A.** inactive

**Q.** Cc1cc(=O)oc2cc(OCC(=O)N/N=C/c3ccccc3O)ccc12 was tested. Which Potency did it give?
**A.** inactive

**Q.** With N#Cc1c(N)sc(=S)c2c1CCN(Cc1ccccc1)C2 as the compound, how does the Potency read?
**A.** inconclusive: 0.631 µM [inhibitor, full curve, poor fit]

**Q.** With N#CCCN(C(=O)COC(=O)c1ccc2c(=O)n3c(nc2c1)CCC3)c1ccccc1 as the compound, how does the Potency read?
**A.** inconclusive: 0.708 µM [inhibitor, single point]

**Q.** For COc1ccc(Oc2nc(-c3ccccn3)nc3ccccc23)cc1, which Potency is on record?
**A.** inconclusive: 35.5 µM [inhibitor, single point]

**Q.** For O=C(Oc1ccc2c3c(c(=O)oc2c1)CCCC3)c1ccco1, which Potency is on record?
**A.** inconclusive: 39.8 µM [inhibitor, single point]

**Q.** Which Potency does the source give for COc1ccccc1Nc1n[nH]c(=S)s1 here?
**A.** active: 6.31 µM

**Q.** For CS(=O)(=O)c1sc2nc(-c3cccs3)cc(-c3ccccc3)c2c1N, which Potency is on record?
**A.** inconclusive: 39.8 µM [inhibitor, single point]

**Q.** O=C(CN1C(=O)NC2(CCCCC2)C1=O)Nc1ccc(F)cc1 was tested. Which Potency did it give?
**A.** inactive

**Q.** Cc1c(Cl)cccc1NC(=O)c1ccc2c(c1)CCCN2S(C)(=O)=O was tested. Which Potency did it give?
**A.** inactive

**Q.** With Cc1c(CC(=O)NCCCCCC(=O)O)c(=O)oc2cc3occ(-c4ccccc4)c3cc12 as the compound, how does the Potency read?
**A.** inconclusive: 1.78 µM [inhibitor, full curve]
